PubChem BioAssay AID1671190 (National Center for Advancing Translational Sciences (NCATS), 2021)
Among all 580,000 compounds or so, about 6,100 (1.1%) were called active. Inconclusive means that the source gave no clear call. Such entries were picked first, then a sample of the others. Calls come from the whole dose curve; as a rule, active = well fitted inhibition curve with a large enough effect; inconclusive = small, poorly fitted or top-dose-only effect, or another doubt; inactive = no such curve, though single readings can be large or run the other way. Where the call is inconclusive, the potency comes from a doubtful curve fit.

Sequences of proteins named here, by UniProt entry; tags and fusion partners are left off. A change or cut given only in a name is not applied to a line headed by its entry.
UniProt P18054: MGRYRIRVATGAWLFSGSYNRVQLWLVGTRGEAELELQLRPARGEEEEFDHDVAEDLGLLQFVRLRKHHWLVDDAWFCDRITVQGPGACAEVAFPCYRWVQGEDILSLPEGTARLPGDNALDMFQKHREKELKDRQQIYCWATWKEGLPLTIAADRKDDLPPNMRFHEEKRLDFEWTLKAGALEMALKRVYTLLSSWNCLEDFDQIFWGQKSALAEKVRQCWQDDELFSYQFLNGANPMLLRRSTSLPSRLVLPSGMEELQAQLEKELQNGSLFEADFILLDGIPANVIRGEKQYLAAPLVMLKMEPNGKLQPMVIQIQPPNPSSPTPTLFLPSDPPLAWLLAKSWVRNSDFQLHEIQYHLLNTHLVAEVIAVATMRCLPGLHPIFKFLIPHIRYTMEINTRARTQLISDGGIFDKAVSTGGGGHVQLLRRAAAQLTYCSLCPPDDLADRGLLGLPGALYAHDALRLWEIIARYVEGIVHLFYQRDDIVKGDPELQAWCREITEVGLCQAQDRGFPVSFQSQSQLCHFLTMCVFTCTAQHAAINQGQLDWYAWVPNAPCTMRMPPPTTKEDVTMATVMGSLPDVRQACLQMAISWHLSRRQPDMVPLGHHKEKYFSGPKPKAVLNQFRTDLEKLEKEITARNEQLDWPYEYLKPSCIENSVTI

The compounds below were run against Polyunsaturated fatty acid lipoxygenase ALOX12 (Homo sapiens) (UniProt P18054) (assay: Primary qHTS assay for inhibitors of human arachidonate 12S-lipoxygenase (ALOX12): Round 2). Details: purified 12hLO, xylenol orange hydroperoxide absorbance; activity change, negative = inhibition: at 108 µM (top of the series) unless noted.
Method in brief: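 Hydroperoxide product was detected by ferrous iron/xylenol orange as the 573 to 405 nm absorbance ratio. Arachidonic acid at 40 uM (final) was turned over for 30 min at room temperature by 150 nM human 12hLO, pH 7.0 Hepes buffer, after 15 min compound preincubation.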
% is set by controls: 0 for no effect and ±100 for the full control effect; potency is the fitted concentration of half-maximal effect.

SMILES | Potency | activity change, negative = inhibition
O=C(c1cc2ccccc2[nH]1)N(Cc1cccc(Br)c1)C1CC1 | inconclusive: 89.1 µM [inhibitor, single point] | 
COC(=O)c1scc(-c2ccc(C)cc2)c1S(=O)(=O)N1CCN(c2ccc(F)cc2)CC1 | inconclusive: 141 µM [inhibitor, single point] | 
Cc1ccc(C(=O)NCc2nnc3cc(-c4nc(C(C)C)no4)ccn23)cc1 |  | inactive: 3.88%
CCOc1ccc(NC(=O)c2ccc3c(c2)OCCO3)cc1S(=O)(=O)N(CC)CC | inconclusive: 79.4 µM [inhibitor, single point] | 
Cc1ccc(S(=O)(=O)NC(C)C(=O)OCC(=O)N(C)c2ccccc2)cc1 (centres undefined) | inconclusive: 15.8 µM [inhibitor, full curve] | 
COc1ccc(Cl)cc1NC(=O)Cn1c(-c2ccccc2)nc(C)c(CCO)c1=O | inconclusive: 22.4 µM [inhibitor, full curve] | 
O=C(NCc1ccco1)c1ccc2c(c1)N(Cc1ccccc1)C(=O)c1ccccc1S2 | inconclusive: 56.2 µM [inhibitor, partial curve, poor fit] | 
CCC1CCCCN1C(=O)c1c[nH]c2ccc(S(=O)(=O)Nc3cccc(OC)c3)cc2c1=O (centres undefined) | inconclusive: 50.1 µM [inhibitor, partial curve, poor fit] | 
CC(NC(=S)NNC=O)c1ccccc1 (centres undefined) |  | inactive: 4.7%
Fc1ccc(CN2CCOC[C@H]2c2ncc(-c3cccc(Cl)c3)[nH]2)cc1 |  | inactive: -0.632% [at 176 µM]
Cc1cc(C)cc(-n2ccn(CC(=O)c3ccc(F)cc3)c(=O)c2=O)c1 | inconclusive: 112 µM [inhibitor, partial curve, poor fit] | 
CCN(CC)C(=O)CNC(=O)c1[nH]c2ccccc2c1Cl |  | inactive: -1.39%
C/C(=N\NS(=O)(=O)c1ccc(C)cc1)c1cccs1 |  | inactive: 2.28%
CCOc1ccc(NC(=O)CCc2c(C)nc3cc(-c4ccccc4OC)nn3c2C)cc1 | inconclusive: 56.2 µM [inhibitor, partial curve, poor fit] | 
CC1(C)Cc2ccccc2-c2n[nH]c(=S)n21 | inconclusive: 35.5 µM [inhibitor, partial curve, poor fit] | 
N#CC1=C(N)Oc2c(ccc3ccccc23)C1c1ccsc1 (centres undefined) |  | inactive: -25.1%
CCC(=O)NC(=S)Nc1ccc(NC(=O)c2ccco2)cc1 |  | inactive: -26.2%
COC(=O)c1ccc(CSc2c(C(C)C)cnc3c2c(=O)n(C)c(=O)n3C)cc1 | inconclusive: 89.1 µM [inhibitor, partial curve, poor fit] | 
Cc1ccc(CNC(=O)c2ccc(Sc3ccc(C)cc3)c(N)c2)cc1 | inconclusive: 50.1 µM [inhibitor, partial curve, poor fit] | 
Cc1c(NC(=O)Nc2ccc(Cl)c(Cl)c2)sc2nc3n(c(=O)c12)CCC(C)CC3 (centres undefined) |  | inactive: -21.6%
CCOC(=O)N1CCN(Cc2ccc(F)cc2F)CC1 | inconclusive: 0.316 µM [inhibitor, full curve, poor fit] | 
C=CCN=C1NC(c2ccccc2C(F)(F)F)C(C(=O)OC)=C(C)N1Cc1cccc(C(F)(F)F)c1 (centres undefined) | inconclusive: 79.4 µM [inhibitor, partial curve, poor fit] | 
O=C(/C=C/c1ccc(-c2c(Cl)cccc2Cl)o1)c1ccc(Cl)cc1 | inconclusive: 2.24 µM [inhibitor, full curve, poor fit] | 

A draw from above in order of SMILES length, high to low:
SMILES | Potency | activity change, negative = inhibition
Cc1c(NC(=O)Nc2ccc(Cl)c(Cl)c2)sc2nc3n(c(=O)c12)CCC(C)CC3 (centres undefined) |  | inactive: -21.6%
COC(=O)c1ccc(CSc2c(C(C)C)cnc3c2c(=O)n(C)c(=O)n3C)cc1 | inconclusive: 89.1 µM [inhibitor, partial curve, poor fit] | 
Fc1ccc(CN2CCOC[C@H]2c2ncc(-c3cccc(Cl)c3)[nH]2)cc1 |  | inactive: -0.632% [at 176 µM]
Cc1ccc(C(=O)NCc2nnc3cc(-c4nc(C(C)C)no4)ccn23)cc1 |  | inactive: 3.88%

Carrying on.

SMILES | Potency | activity change, negative = inhibition
CC(C)(O)C(=O)NN(Cc1ccccc1)c1ccccc1 |  | inactive: -16.6%
COC(=O)CCNC(=O)C(c1ccccc1)c1ccccc1 |  | inactive: -16.4%
CCc1ccc2cc(C(=O)O)[nH]c2c1 |  | inactive: -24.2%
COc1ccc(Cl)cc1NC(=O)CC1S/C(=N/N=C2CCCCCC2)NC1=O (centres undefined) | inconclusive: 50.1 µM [inhibitor, partial curve, poor fit] | 
Cc1ccc(CC(=O)N(C)CC(=O)N(CC(C)C)c2c(N)n(CC(C)C)c(=O)[nH]c2=O)cc1C | inconclusive: 0.398 µM [inhibitor, full curve, poor fit] | 
Cc1ccc2sc(-c3ccc(N)cc3)nc2c1 | inconclusive: 89.1 µM [inhibitor, partial curve, poor fit] | 
Cc1ccc(NC(=O)CN2C(=O)c3ccccc3S2(=O)=O)cc1C | inconclusive: 44.7 µM [inhibitor, partial curve, poor fit] | 
NC(=S)c1cc2ccc(O)cc2oc1=O | inconclusive: 79.4 µM [inhibitor, partial curve, poor fit] | 
CCCNC(=O)c1oc2ccc3c(c2c1C)C(=O)CC(C)(C)O3 |  | inactive: 2.07%
COc1ccc(-c2nc(CSCC(=O)N3CCc4ccccc4C3)c(C)o2)cc1OC | inconclusive: 17.8 µM [inhibitor, partial curve, poor fit] | 
O=C(NC(=S)Nc1ccc(CN2CCOCC2)cc1)c1ccco1 | inconclusive: 35.5 µM [inhibitor, partial curve, poor fit] | 
Cc1ccccc1C(=O)OC1CCN(C)CC1 | inconclusive: 126 µM [inhibitor, single point] | 
Cc1ccc(C)c(S(=O)(=O)NCCOc2nc(NC(C)C)nc(NC(C)C)n2)c1 |  | inactive: 6.9% [at 57.4 µM]
CC(=O)/C=C/c1ccc(C)o1 |  | inactive: -4.99%
Cc1ccc2c(c1)[C@@H](O)C[C@@H](C)N2N=O | inconclusive: 3.55 µM [inhibitor, full curve, poor fit] | 
CCCCC(=O)Nc1cnc(NC(=O)c2cccs2)cc1C | inconclusive: 126 µM [inhibitor, single point] | 
S=C(NNC(=S)NC1CCCCC1)NC1CCCCC1 |  | inactive: -8.21%
OCCC1CN(CCCc2ccccc2)CCN1Cc1ccc(F)cc1 (centres undefined) |  | inactive: 9.86%
O=C(O)c1ccc(N2N=C(c3ccccc3)CC2c2ccccc2)cc1 (centres undefined) | inconclusive: 50.1 µM [inhibitor, partial curve, poor fit] | 
CCOc1ccc(-c2cnc(NCc3cccc4ccccc34)n2CCOC)cc1 | inconclusive: 56.2 µM [inhibitor, partial curve, poor fit] | 
CN(Cc1ccco1)C(=O)CSc1nn2c(=O)c(C(C)(C)C)nnc2s1 | inconclusive: 100 µM [inhibitor, partial curve, poor fit] | 
Cc1cc2nc(-c3cccc(Cl)c3)c(CC3CCCCC3)n2c(C)c1Br | inconclusive: 100 µM [inhibitor, single point] | 
CC(=O)Nc1ccc(NC(=O)C(C)Cl)cc1 (centres undefined) |  | inactive: -52.5%

SMILES | Potency | activity change, negative = inhibition
COC(=O)/C(=N/Nc1ccccc1C)Sc1nnc(C(O)c2ccccc2)n1-c1ccccc1 (centres undefined) | inconclusive: 56.2 µM [inhibitor, partial curve, poor fit] | 
COc1ccc(NC(=O)c2nc(S(=O)(=O)Cc3ccccc3)ncc2Cl)cc1 | inconclusive: 25.1 µM [inhibitor, partial curve, poor fit] | 
Cc1onc(-c2ccccc2Cl)c1C(=O)NCC(=O)O |  | inactive: 0%
CC(=O)Nc1ccc(S(=O)(=O)NNc2cccc(C)c2)cc1 | active: 2 µM | 
CCCCCn1c(-c2ccco2)nc2nc3ccccc3nc21 | active: 35.5 µM | 
CCN(Cc1ccccn1)C(=O)c1csc2nc(-c3cc(C)ccc3C)cn12 |  | inactive: 40.1%
O=S1(=O)c2ccc(Br)cc2N2CC[C@H](C2)N1Cc1ccc(Cl)cc1 | inconclusive: 35.5 µM [inhibitor, partial curve, poor fit] | 
COC(=O)c1ccc(C2c3c(n[nH]c3C)C(=O)N2c2ccc(C)cc2)cc1 (centres undefined) | inconclusive: 39.8 µM [inhibitor, partial curve, poor fit] | 
O=C(C[C@@H]1C[C@@H]2c3cc(NS(=O)(=O)c4ccc(F)cc4)ccc3O[C@@H]2[C@H](CO)O1)NCc1ccc(Oc2ccccc2)cc1 | inconclusive: 50.1 µM [inhibitor, partial curve, poor fit] | 
Cc1cc2cc(CNC(=O)c3ccc(Br)o3)ccc2[nH]1 | inconclusive: 39.8 µM [inhibitor, partial curve, poor fit] | 
COc1ccccc1NC(=O)c1ccc(COc2ccc3c(c2)CCC3)cc1 |  | inactive: 3.06%
Cn1nc(C(=O)OCC(=O)N(Cc2ccccc2)C(C)(C)C)c2ccccc2c1=O | inconclusive: 44.7 µM [inhibitor, partial curve, poor fit] | 
COCCn1c(C(=O)NCc2cccnc2)nc2ccccc2c1=O | inconclusive: 5.62 µM [inhibitor, partial curve, poor fit] | 
O=C(Nc1ccccc1F)c1ccc(Cn2nc(N3CCN(c4ccccc4)CC3)ccc2=O)o1 | active: 44.7 µM | 
Cn1nnnc1SCC(=O)NCc1cc([N+](=O)[O-])ccc1O | inconclusive: 35.5 µM [inhibitor, partial curve, poor fit] | 
COc1ccc(C2NC(=O)N(CC(=O)N3CCCCCC3)C3=C2C(=O)OC3)cc1 (centres undefined) |  | inactive: 30.7%
Cc1ccnc(NC(=O)C2CCN(C(=O)C(C)(C)C)CC2)c1 |  | inactive: 44%
COCCCn1c(=S)[nH]c2c(sc3ccccc32)c1=O | inconclusive: 39.8 µM [inhibitor, partial curve, poor fit] | 
O=[N+]([O-])c1ccc(C(O)CNC(=S)Nc2ccccc2)cc1 (centres undefined) | inconclusive: 50.1 µM [inhibitor, partial curve, poor fit] | 
CC(C)C(=O)N1CCC(c2nc(-c3ccc(S(=O)(=O)N4CCN(C)CC4)cc3)no2)CC1 | inconclusive: 50.1 µM [inhibitor, partial curve, poor fit] | 
O=C1CC2c3ccccc3C1C1C(=O)N(CCc3ccccc3)C(=O)C21 (centres undefined) |  | inactive: -8.95%
COc1ccc2c(CN3CCC(CO)CC3)cc(=O)oc2c1 |  | inactive: -11.4%
O=C(NCc1cc2n(n1)CCCNC2)c1ccc(Cn2cnnn2)cc1 | inconclusive: 12.6 µM [inhibitor, full curve] | 
